Assay results taken from PubChem BioAssay AID504444 (National Center for Advancing Translational Sciences (NCATS), 2011).
Hit rate of the full screen: of about 360,000 compounds, about 7,500 (2.1%) were called active. The inconclusive results got no clear call from the source; some entries with a clear call stand among them for comparison. The call rests on the fitted dose curve; in most records, active means well fitted inhibition curve with a large enough effect; inconclusive means small, poorly fitted or top-dose-only effect, or effect the other way; inactive means flat fitted curve, though single readings scatter. Where the call is inconclusive, the potency comes from a doubtful curve fit.

assay: Nrf2 qHTS screen for inhibitors; settings: A549 ARE-Fluc reporter, luciferase luminescence, 18-24 h; series mostly up to 46 µM; further: nearly all actives have a fitted effect of over 60% in size
Method in brief: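 Reporter: ARE-Fluc in A549. Exposure: 18-24 h, 37 °C, 5% CO2, 5% FBS OPTI-MEM. Readouts: fluorescent cytotoxicity (CellTiter-Fluor), then luminescent Nrf2 signal after BugLite.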
Potency means the concentration at half of the fitted maximal effect.

Row | Compound | Potency
1 | CCn1cc(-c2csc(N)n2)c(C)n1 | inconclusive: 25.9 µM [activator, partial curve, poor fit]
2 | Nc1ccc(Sc2nnnn2-c2ccccc2)c(Cl)c1 | inconclusive: 4.11 µM [activator, single point]
3 | CCc1nnc(NS(=O)(=O)c2ccc(NC(=O)c3ccc(Br)cc3)cc2)s1 | inconclusive: 18.4 µM [falling, partial curve, poor fit]
4 | N#CC1=C(SCC(=O)NC23CC4CC(CC(C4)C2)C3)NC(=O)C(C#N)C12CCCCC2 (stereo not given) | active: 14.6 µM
5 | COc1ccc(C2NC(=S)N3C(c4ccc(OC)cc4)NC(=S)N23)cc1 (stereo not given) | inconclusive: 0.184 µM [activator, full curve, poor fit]
6 | c1ccc(CNc2ncnc3c2cnn3Cc2ccccc2)cc1 | inconclusive: 20.6 µM [falling, partial curve, poor fit]
7 | O=c1c(Cl)c(N2CCN(c3ccc(F)cc3)CC2)cnn1C12CC3CC(CC(C3)C1)C2 | inconclusive: 29.1 µM [falling, single point]
8 | Cc1ccn2c(Nc3ccccc3)c(-c3ccccn3)nc2c1 | active: 25.9 µM
9 | COc1ccc(-c2noc(N3CCC(C(=O)Nc4ccc(OC)c(OC)c4)CC3)n2)cc1 | inconclusive: 29.1 µM [activator, single point]
10 | CCNC(=O)/C(C#N)=C/c1c(N(Cc2ccccc2)Cc2ccccc2)nc2ccccn2c1=O | inconclusive: 14.6 µM [falling, single point]
11 | O=c1c2cc3c(cc2n(Cc2ccccc2)c(=O)n1Cc1nc(-c2ccccc2)no1)OCO3 | inconclusive: 23.1 µM [activator, partial curve, poor fit]
12 | Cc1cc(S(=O)(=O)N2CCN(c3ccc(F)cc3)CC2)ccc1-n1cnnn1 | inconclusive: 4.61 µM [falling, full curve]
13 | Cc1nn(-c2ccccc2)c(Cl)c1C(=O)Nc1ccc(N2CCOCC2)cc1 | inconclusive: 16.4 µM [activator, partial curve, poor fit]
14 | c1ccc(-c2nc(N3CCN(c4ccccc4)CC3)nc(-n3ccnc3)n2)cc1 | active: 4.61 µM
15 | COc1ccccc1CN1CC(C(=O)N2CCC(C(=O)c3ccccc3)CC2)CCC1=O (stereo not given) | inconclusive: 29.1 µM [falling, single point]
16 | CCC1CN(C(=O)NCc2ccccc2)c2cc(C)ccc2O1 (stereo not given) | inconclusive: 29.1 µM [falling, single point]
17 | CN1/C(=C\C(=O)CSc2nnc(NCc3ccccc3)s2)C(C)(C)c2ccccc21 | inconclusive: 29.1 µM [falling, single point]
18 | Cc1nc2sc(-c3ccccc3)cc2c(=O)n1/N=C/N(C)C | inconclusive: 7.31 µM [activator, partial curve]
19 | COc1ccc(C(C(=O)NC2CCCCC2)N(Cc2cccs2)C(=O)Cc2c[nH]c3ccccc23)cc1OC (stereo not given) | active: 23.1 µM
20 | CCOC(=O)c1nn(-c2ccc(Cl)cc2)c2nnc(Cc3ccccc3)c(=O)n12 | inactive
21 | CC(=O)Nc1nc(C)c(-c2csc(Nc3ccc(O)cc3)n2)s1 | inconclusive: 9.2 µM [falling, partial curve, poor fit]
22 | COc1ccc(NC(=O)CN2C(=O)CSc3ccc(S(=O)(=O)N(C)C)cc32)cc1Cl | inactive

Quoted from the listing.
c1ccc(CNc2ncnc3c2cnn3Cc2ccccc2)cc1 – Potency: inconclusive: 20.6 µM [falling, partial curve, poor fit]
O=c1c(Cl)c(N2CCN(c3ccc(F)cc3)CC2)cnn1C12CC3CC(CC(C3)C1)C2 – Potency: inconclusive: 29.1 µM [falling, single point]
CCC1CN(C(=O)NCc2ccccc2)c2cc(C)ccc2O1 (stereo not given) – Potency: inconclusive: 29.1 µM [falling, single point]
COc1ccc(C(C(=O)NC2CCCCC2)N(Cc2cccs2)C(=O)Cc2c[nH]c3ccccc23)cc1OC (stereo not given) – Potency: active: 23.1 µM

Later entries.

Row | Compound | Potency
23 | COc1cc(N)c(Cl)cc1C(=O)OC(C)C(=O)Nc1cccc(S(=O)(=O)N2CCOCC2)c1 (stereo not given) | inconclusive: 20.6 µM [falling, single point]
24 | COc1ccc(NC(=O)C2CCN(C(=O)N3CCOc4ccccc43)CC2)cc1 | inconclusive: 29.1 µM [falling, single point]
25 | COc1ccccc1/C=N/N(C(C)=O)c1nc(-c2ccc(F)cc2)cs1 | inconclusive: 1.16 µM [activator, full curve]
26 | Cc1ccc(/C=N/Nc2nnc(Cl)c3ccccc23)cc1 | inconclusive: 6.51 µM [activator, partial curve]
27 | COC(=O)c1c(C)[nH]c(C(=O)OCC(=O)NC(C)(C)C)c1C | inconclusive: 25.9 µM [falling, single point]
28 | O=C(COC(=O)CCN1C(=O)/C(=C\C=C\c2ccccc2)SC1=S)Nc1cc(F)ccc1F | active: 8.2 µM
29 | COc1ccc(CNC(=O)CCCn2c(=O)c3cccn3c3ccc(F)cc32)cc1OC | inactive
30 | Nc1ccc(CCc2ccccn2)cc1 | inconclusive: 20.6 µM [activator, partial curve]
31 | CCC(=O)NCCc1nc2cc(NC(=O)c3ccc(F)cc3)ccc2n1C | inconclusive: 9.2 µM [activator, partial curve]
32 | N#Cc1ccc(NC(=O)COC(=O)C2Cc3ccccc3CN2C(=O)c2ccccc2)cc1 (stereo not given) | active: 7.31 µM
33 | Cc1c([N+](=O)[O-])cc(C(=O)Nc2ccc(Cc3ccncc3)cc2)cc1[N+](=O)[O-] | inconclusive: 23.1 µM [falling, single point]
34 | CCOC(=O)C1=CN(Cc2cccc(F)c2)S(=O)(=O)NC1c1ccc(F)c(Cl)c1 (stereo not given) | inconclusive: 23.1 µM [falling, single point]
35 | COc1ccc(NC(=O)c2cc(S(=O)(=O)N(Cc3ccccc3)c3ccccc3)ccc2Cl)cn1 | inconclusive: 18.4 µM [falling, single point]
36 | COCC(C)N=C1NN=C(c2cc(C)n(Cc3ccccc3Cl)c2C)CS1 (stereo not given) | inconclusive: 5.8 µM [falling, single point]
37 | Cc1csc2ncnc(NC3CCN(Cc4ccccc4)CC3)c12 | active: 9.2 µM
38 | CC(=O)c1ccc(NC(=O)C2CC(=O)N(Cc3ccccc3)C2)cc1 (stereo not given) | inconclusive: 10.3 µM [activator, partial curve]
39 | CCOC(=O)c1ccc(NS(=O)(=O)c2ccc3c(c2)OCCO3)cc1 | inconclusive: 23.1 µM [falling, partial curve, poor fit]
40 | Cn1nc(C(=O)NCc2ccc(F)cc2)cc1C(=O)NCc1ccc(F)cc1 | inconclusive: 8.2 µM [falling, partial curve]
41 | O=Cc1cccn1-c1ccc(O)cc1 | inactive
42 | CCCSc1nc(-c2ccc(OC)cc2)cc(-c2ccccc2OC)c1C#N | inactive
43 | Cc1cccc(C)c1NC(=O)CN(Cc1ccc(Br)cc1)S(=O)(=O)c1ccccc1 | inconclusive: 32.6 µM [falling, single point]
44 | Cc1ccc(S(=O)(=O)NCCSc2nnnn2-c2ccc(C(N)=O)cc2)cc1 | inactive

Row | Compound | Potency
45 | CC1Sc2ccc(S(=O)(=O)N3CCC(C(=O)NCc4ccco4)CC3)cc2NC1=O (stereo not given) | inactive
46 | Cc1cc(OC(F)F)ccc1NC(=O)Nc1ccc([N+](=O)[O-])cc1 | inconclusive: 29.1 µM [falling, single point]
47 | N#Cc1c(NC(=O)CCCl)sc2c1CCCCC2 | inconclusive: 20.6 µM [activator, single point]
48 | COc1ccc(Cl)cc1Nc1cc(C)nc2nc(-c3ccccc3C)nn12 | inactive
49 | Cc1ccc([N+](=O)[O-])cc1NC(=O)CSc1n[nH]c(-c2cccnc2)n1 | inconclusive: 29.1 µM [falling, single point]
50 | C=C1CC[C@@H]2[C@](C)(CO)[C@H](O)CC[C@@]2(C)[C@@H]1C/C=C1/C(=O)OCC1O (stereo not given in full) | inconclusive: 29.1 µM [activator, single point]
51 | O=C(NCCc1ccc(Cl)cc1)c1ccc2nc[nH]c2c1 | inconclusive: 5.8 µM [activator, full curve, poor fit]
52 | O=C(CCC1CCCN(C(=O)c2ccncc2)C1)NCc1ccc(F)c(F)c1 (stereo not given) | inconclusive: 11.6 µM [activator, partial curve, poor fit]
53 | O=C(Nc1ccccc1)c1ccc(S(=O)(=O)N2CCCCC2)cc1 | inconclusive: 29.1 µM [falling, single point]
54 | Cc1cccc(NC(=O)COc2ccc3oc4c(c3c2)CCCC4)n1 | inactive
55 | CC(=O)N1CCN(c2ccc(S(=O)(=O)N3CCCCC3)cc2[N+](=O)[O-])CC1 | inconclusive: 29.1 µM [falling, partial curve, poor fit]
56 | COc1ccccc1Nc1ncc(-c2cccs2)s1 | inconclusive: 10.3 µM [activator, partial curve]
57 | Cc1cccc(-n2ncc3c(N4CCCC4)ncnc32)c1 | inconclusive: 0.366 µM [activator, full curve]
58 | COc1ccccc1C1=NC(c2ccc(F)cc2)N=C1C (stereo not given) | inconclusive: 29.1 µM [activator, single point]
59 | CC1(C)C[C@H](O)[C@]2(CO)[C@H](O)C[C@]3(C)C(=CCC4[C@@]5(C)CC[C@H](O)C(C)(C)C5CC[C@]43C)[C@@H]2C1 (stereo not given in full) | inconclusive: 29.1 µM [falling, single point]
60 | COc1ccc(CCNC(=O)C2CCCN(c3nc(C)cc(C)n3)C2)cc1 (stereo not given) | inactive
61 | COc1ccccc1-c1cc2nc(C)c(CCC(=O)NCCc3ccc(SC)cc3)c(C)n2n1 | inconclusive: 29.1 µM [falling, single point]
62 | Cc1ccc(N(C)S(=O)(=O)c2nnc(NC(=O)CC(C)C)s2)cc1 | inconclusive: 29.1 µM [activator, single point]
63 | COc1cc(NC(=O)c2cc3c(C)nc4ccccc4c3o2)cc(OC)c1OC | inactive
64 | Fc1ccc(-n2nnnc2-c2cnc(-c3cccs3)nc2C(F)(F)F)cc1 | active: 14.6 µM
65 | CC(C)c1ccc(NC(=O)NN2CCOCC2)cc1 | inconclusive: 1.64 µM [activator, full curve, poor fit]
